Literature values, collected in patent US20100093661A1, “COMPOSITION COMPRISING CHITOSAN AND AN ACIDIC DRUG FOR ORAL CONTROLLED RELEASE” (The Jordanian Pharmaceutical Manufacturing Co., priority 2007, published 2010).

Conditions: background description of the drug; cited from earlier work

## CC(C)Cc1ccc(C(C)C(=O)O)cc1 (stereo not shown) [Ibuprofen]
  water solubility: practically insoluble in water
